{"source": "PubChem BioAssay AID1259405 (NCATS, 2018)", "aim": "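Mouse-designed siRNAs used to find CHO productivity engineering targets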 (primary screen)", "cell system": "Chinese hamster CHO-K1 ovary cells with stable secreted eGFP expression", "reagents": "single siRNA against mouse genes, 0.8 pmol siRNA per well (2 µl of 400 nM stock)", "time to read-out": "3 days", "read-out": "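Percent of the per-plate non-targeting control median for intracellular GFP per well by laser scanning cytometry and for cell viability by ATP luminescence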", "scale": "GFP, % of control: higher = more GFP per well, higher productivity; viability (ATP), % of control: higher = more viable cells (more ATP)", "rule for the call": "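a knock-down is called active if GFP reaches 120% or more of non-targeting control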", "note": "This is one part, drawn at random, of about 50,000 reagents. About 4,000 of them (8%) count as active. 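Mouse siRNA library applied to hamster cells; one well for each siRNA.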 The numbers tell different reagents against one gene apart."}
{"gene": "Tspo2 (translocator protein 2)", "siRNA no.": 1, "GFP, % of control": 62.2, "viability (ATP), % of control": 64.8, "Outcome": "inactive"}
{"gene": "Tspo2 (translocator protein 2)", "siRNA no.": 2, "GFP, % of control": 78.6, "viability (ATP), % of control": 78.7, "Outcome": "inactive"}
{"gene": "Tspo2 (translocator protein 2)", "siRNA no.": 3, "GFP, % of control": 35.9, "viability (ATP), % of control": 36.4, "Outcome": "inactive"}
{"gene": "Ap4m1 (adaptor-related protein complex AP-4, mu 1)", "siRNA no.": 1, "GFP, % of control": 101, "viability (ATP), % of control": 93.4, "Outcome": "inactive"}
{"gene": "Ap4m1 (adaptor-related protein complex AP-4, mu 1)", "siRNA no.": 2, "GFP, % of control": 87, "viability (ATP), % of control": 81.6, "Outcome": "inactive"}
{"gene": "Ap4m1 (adaptor-related protein complex AP-4, mu 1)", "siRNA no.": 3, "GFP, % of control": 88, "viability (ATP), % of control": 72.5, "Outcome": "inactive"}
{"gene": "Spata31d1a (spermatogenesis associated 31 subfamily D, member 1A)", "siRNA no.": 1, "GFP, % of control": 37.6, "viability (ATP), % of control": 57.7, "Outcome": "inactive"}
{"gene": "Spata31d1a (spermatogenesis associated 31 subfamily D, member 1A)", "siRNA no.": 2, "GFP, % of control": 54.1, "viability (ATP), % of control": 73.7, "Outcome": "inactive"}
{"gene": "Spata31d1a (spermatogenesis associated 31 subfamily D, member 1A)", "siRNA no.": 3, "GFP, % of control": 56.5, "viability (ATP), % of control": 48, "Outcome": "inactive"}
{"gene": "Mgll (monoglyceride lipase)", "siRNA no.": 1, "GFP, % of control": 53.8, "viability (ATP), % of control": 60.1, "Outcome": "inactive"}
{"gene": "Mgll (monoglyceride lipase)", "siRNA no.": 2, "GFP, % of control": 100, "viability (ATP), % of control": 124, "Outcome": "inactive"}
{"gene": "Mgll (monoglyceride lipase)", "siRNA no.": 3, "GFP, % of control": 50.9, "viability (ATP), % of control": 55.4, "Outcome": "inactive"}
{"gene": "Impg1 (interphotoreceptor matrix proteoglycan 1)", "siRNA no.": 1, "GFP, % of control": 124, "viability (ATP), % of control": 118, "Outcome": "active"}
{"gene": "Impg1 (interphotoreceptor matrix proteoglycan 1)", "siRNA no.": 2, "GFP, % of control": 86.1, "viability (ATP), % of control": 67.4, "Outcome": "inactive"}
{"gene": "Ivd (isovaleryl coenzyme A dehydrogenase)", "siRNA no.": 1, "GFP, % of control": 85, "viability (ATP), % of control": 80, "Outcome": "inactive"}
{"gene": "Ivd (isovaleryl coenzyme A dehydrogenase)", "siRNA no.": 2, "GFP, % of control": 98.4, "viability (ATP), % of control": 74.3, "Outcome": "inactive"}
{"gene": "Ivd (isovaleryl coenzyme A dehydrogenase)", "siRNA no.": 3, "GFP, % of control": 77.2, "viability (ATP), % of control": 94.9, "Outcome": "inactive"}
{"gene": "Rc3h1 (RING CCCH (C3H) domains 1)", "siRNA no.": 1, "GFP, % of control": 1.94, "viability (ATP), % of control": 18.9, "Outcome": "inactive"}
{"gene": "Rc3h1 (RING CCCH (C3H) domains 1)", "siRNA no.": 2, "GFP, % of control": 79.6, "viability (ATP), % of control": 73.4, "Outcome": "inactive"}
{"gene": "Rc3h1 (RING CCCH (C3H) domains 1)", "siRNA no.": 3, "GFP, % of control": 65.3, "viability (ATP), % of control": 90, "Outcome": "inactive"}
{"gene": "D16Ertd472e (DNA segment, Chr 16, ERATO Doi 472, expressed)", "siRNA no.": 1, "GFP, % of control": 64.7, "viability (ATP), % of control": 84.9, "Outcome": "inactive"}
{"gene": "D16Ertd472e (DNA segment, Chr 16, ERATO Doi 472, expressed)", "siRNA no.": 2, "GFP, % of control": 103, "viability (ATP), % of control": 80.6, "Outcome": "inactive"}
{"gene": "D16Ertd472e (DNA segment, Chr 16, ERATO Doi 472, expressed)", "siRNA no.": 3, "GFP, % of control": 98.5, "viability (ATP), % of control": 64.1, "Outcome": "inactive"}
{"gene": "Popdc2 (popeye domain containing 2)", "siRNA no.": 1, "GFP, % of control": 104, "viability (ATP), % of control": 56.7, "Outcome": "inactive"}
{"gene": "Popdc2 (popeye domain containing 2)", "siRNA no.": 2, "GFP, % of control": 92.3, "viability (ATP), % of control": 81.4, "Outcome": "inactive"}
{"gene": "Popdc2 (popeye domain containing 2)", "siRNA no.": 3, "GFP, % of control": 121, "viability (ATP), % of control": 102, "Outcome": "active"}
{"gene": "Tubg2 (tubulin, gamma 2)", "siRNA no.": 1, "GFP, % of control": 50, "viability (ATP), % of control": 59.8, "Outcome": "inactive"}
{"gene": "Tubg2 (tubulin, gamma 2)", "siRNA no.": 2, "GFP, % of control": 119, "viability (ATP), % of control": 141, "Outcome": "inactive"}
{"gene": "Col4a1 (collagen, type IV, alpha 1)", "siRNA no.": 1, "GFP, % of control": 70.1, "viability (ATP), % of control": 65.8, "Outcome": "inactive"}
{"gene": "Col4a1 (collagen, type IV, alpha 1)", "siRNA no.": 2, "GFP, % of control": 164, "viability (ATP), % of control": 68.8, "Outcome": "active"}
{"gene": "Col4a1 (collagen, type IV, alpha 1)", "siRNA no.": 3, "GFP, % of control": 60.9, "viability (ATP), % of control": 64.8, "Outcome": "inactive"}
{"gene": "Mrpl51 (mitochondrial ribosomal protein L51)", "siRNA no.": 1, "GFP, % of control": 76.4, "viability (ATP), % of control": 68.4, "Outcome": "inactive"}
{"gene": "Mrpl51 (mitochondrial ribosomal protein L51)", "siRNA no.": 2, "GFP, % of control": 83.5, "viability (ATP), % of control": 43.4, "Outcome": "inactive"}
{"gene": "Mrpl51 (mitochondrial ribosomal protein L51)", "siRNA no.": 3, "GFP, % of control": 65.6, "viability (ATP), % of control": 63.8, "Outcome": "inactive"}
{"gene": "Nlrp1a (NLR family, pyrin domain containing 1A)", "siRNA no.": 1, "GFP, % of control": 40.8, "viability (ATP), % of control": 60.8, "Outcome": "inactive"}
{"gene": "Nlrp1a (NLR family, pyrin domain containing 1A)", "siRNA no.": 2, "GFP, % of control": 86.9, "viability (ATP), % of control": 87.2, "Outcome": "inactive"}
{"gene": "Nlrp1a (NLR family, pyrin domain containing 1A)", "siRNA no.": 3, "GFP, % of control": 108, "viability (ATP), % of control": 57.5, "Outcome": "inactive"}
{"gene": "V1rg10 (vomeronasal 1 receptor, G10)", "siRNA no.": 1, "GFP, % of control": 96.3, "viability (ATP), % of control": 65.9, "Outcome": "inactive"}
{"gene": "V1rg10 (vomeronasal 1 receptor, G10)", "siRNA no.": 2, "GFP, % of control": 66, "viability (ATP), % of control": 88.4, "Outcome": "inactive"}
{"gene": "V1rg10 (vomeronasal 1 receptor, G10)", "siRNA no.": 3, "GFP, % of control": 60.8, "viability (ATP), % of control": 60.5, "Outcome": "inactive"}
{"gene": "Fbxo9 (F-box protein 9)", "siRNA no.": 1, "GFP, % of control": 94.5, "viability (ATP), % of control": 67.9, "Outcome": "inactive"}
{"gene": "Fbxo9 (F-box protein 9)", "siRNA no.": 2, "GFP, % of control": 42.9, "viability (ATP), % of control": 27.1, "Outcome": "inactive"}
{"gene": "Fbxo9 (F-box protein 9)", "siRNA no.": 3, "GFP, % of control": 65, "viability (ATP), % of control": 71.9, "Outcome": "inactive"}
{"gene": "Slc9a8", "siRNA no.": 1, "GFP, % of control": 119, "viability (ATP), % of control": 68.2, "Outcome": "inactive"}
{"gene": "Slc9a8", "siRNA no.": 2, "GFP, % of control": 106, "viability (ATP), % of control": 83.3, "Outcome": "inactive"}
{"gene": "Slc9a8", "siRNA no.": 3, "GFP, % of control": 95.8, "viability (ATP), % of control": 91.2, "Outcome": "inactive"}
{"gene": "Myocd (myocardin)", "siRNA no.": 1, "GFP, % of control": 34.6, "viability (ATP), % of control": 32.8, "Outcome": "inactive"}
{"gene": "Myocd (myocardin)", "siRNA no.": 2, "GFP, % of control": 48.8, "viability (ATP), % of control": 82.6, "Outcome": "inactive"}
{"gene": "Myocd (myocardin)", "siRNA no.": 3, "GFP, % of control": 78.2, "viability (ATP), % of control": 110, "Outcome": "inactive"}
{"gene": "Olfr426 (olfactory receptor 426)", "siRNA no.": 1, "GFP, % of control": 52, "viability (ATP), % of control": 53.6, "Outcome": "inactive"}
{"gene": "Olfr426 (olfactory receptor 426)", "siRNA no.": 2, "GFP, % of control": 79.4, "viability (ATP), % of control": 92.5, "Outcome": "inactive"}
{"gene": "Olfr426 (olfactory receptor 426)", "siRNA no.": 3, "GFP, % of control": 49.7, "viability (ATP), % of control": 69.5, "Outcome": "inactive"}
